Source: patent publication US20190225942

Sequences of proteins named here, by UniProt entry; tags and fusion partners are left off. Residues count along the entry.
UniProt P12830, 155-707, stated change not applied: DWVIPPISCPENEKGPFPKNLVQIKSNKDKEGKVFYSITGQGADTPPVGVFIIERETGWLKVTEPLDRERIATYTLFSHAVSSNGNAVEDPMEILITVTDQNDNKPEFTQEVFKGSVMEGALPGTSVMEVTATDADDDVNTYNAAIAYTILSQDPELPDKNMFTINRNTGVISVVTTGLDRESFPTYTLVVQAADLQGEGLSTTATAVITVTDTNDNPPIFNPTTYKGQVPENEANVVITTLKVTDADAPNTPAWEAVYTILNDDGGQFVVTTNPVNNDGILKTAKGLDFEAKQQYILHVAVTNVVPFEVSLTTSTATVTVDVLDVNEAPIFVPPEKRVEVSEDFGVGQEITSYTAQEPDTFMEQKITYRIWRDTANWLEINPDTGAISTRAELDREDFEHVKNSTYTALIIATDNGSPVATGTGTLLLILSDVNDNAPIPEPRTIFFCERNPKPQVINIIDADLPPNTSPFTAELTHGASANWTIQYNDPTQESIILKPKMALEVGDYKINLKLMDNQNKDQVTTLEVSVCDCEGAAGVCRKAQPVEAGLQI
UniProt P12830, 155-882: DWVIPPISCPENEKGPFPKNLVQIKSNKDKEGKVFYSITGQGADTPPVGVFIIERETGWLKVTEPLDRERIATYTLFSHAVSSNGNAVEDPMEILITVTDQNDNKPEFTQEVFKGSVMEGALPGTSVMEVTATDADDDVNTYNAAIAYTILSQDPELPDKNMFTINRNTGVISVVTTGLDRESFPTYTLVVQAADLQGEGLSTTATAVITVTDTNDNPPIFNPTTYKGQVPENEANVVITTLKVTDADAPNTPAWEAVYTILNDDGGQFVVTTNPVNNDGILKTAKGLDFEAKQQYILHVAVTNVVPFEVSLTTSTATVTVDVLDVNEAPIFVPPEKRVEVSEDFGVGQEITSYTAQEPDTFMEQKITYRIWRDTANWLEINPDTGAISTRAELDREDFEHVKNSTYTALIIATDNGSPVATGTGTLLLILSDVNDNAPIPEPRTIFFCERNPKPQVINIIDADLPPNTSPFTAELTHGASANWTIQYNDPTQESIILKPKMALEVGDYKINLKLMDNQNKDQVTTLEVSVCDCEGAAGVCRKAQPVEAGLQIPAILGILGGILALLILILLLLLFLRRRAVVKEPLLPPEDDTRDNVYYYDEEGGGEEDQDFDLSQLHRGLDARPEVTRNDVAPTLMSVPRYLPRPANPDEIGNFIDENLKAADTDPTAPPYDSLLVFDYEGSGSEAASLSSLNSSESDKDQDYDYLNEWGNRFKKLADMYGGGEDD

Legend:
[1] = target: E-cadherin extracellular domain-Fc chimera (Homo sapiens) (UniProt P12830); assay: SPR; conditions: immobilised on SPR chip; Kd analysed from bio-dT44-subtracted sensorgrams but value not given; DPBST pH 7.4, 0.05% Tween 20; purified recombinant protein; protein details: IgG Fc fusion, R&D Systems 648-EC-100; single-stranded DNA
[2] = system: IgG-Fc; assay: SPR; conditions: immobilised on SPR chip; IgG-Fc control, no response change; DPBST pH 7.4; purified recombinant protein; protein details: control Fc; single-stranded DNA
[3] = target: E-cadherin (on A549 cells) (UniProt P12830); assay: activity in cells; conditions: biotin, protein on the cell surface, single-stranded DNA

**Q.** Does “GGGGTGGTGGGGGATACTGTGGGGGTGGTGGGCT [EBA (E-cadherin binding aptamer)]” bind [1]?
**A.** Result: binds

**Q.** Does “GGGGTGGTGGGGGATACTGTGGGGGTGGTGGGCT [EBA (E-cadherin binding aptamer)]” bind [2]?
**A.** Result: no binding

**Q.** For “TTTTTTTTTTGGGGTGGTGGGGGATACTGTGGGGGTGGTGGGCT [Bio-T10-EBA]”, which “functional effect of the aptamer” value ([3]; T10 linker, A549 cells stay adhered to aptamer-coated plate after 1 mM EDTA wash, whole-cell adhesion, E-cadherin not isolated, variant of EBA (E-cadherin binding aptamer)) is on record?
**A.** Its value is “active”.

**Q.** “TTTTTTTTTTTTTTTTTTTTTTTTTTTTTTTTTTTTTTTTTTTT [Bio-T44 (bio-dT44)]” was tested. Which “functional effect of the aptamer” value ([3]; A549 cells detached from Bio-T44-coated plate by 1 mM EDTA wash) did it give?
**A.** Its value is “not active”.

For some of these results: Negatives hold for the conditions tested. For some of these results: The exact form of at least one protein or probe is not confirmed.
